Values from PubChem BioAssay AID1117269 (University of Michigan, 2014).
Aim: 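Which kinase knockdowns increase BTR reporter light after TGF-beta stimulation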 (primary screen). Cell system: human A549 lung cancer and 1833 breast cancer (MDA-MB-231-derived) cell lines carrying a stable BTR luciferase reporter. Reagents: siRNA pool against human genes. Time to read-out: 72 h after transfection, then 1 h TGF-beta before the read. Challenge: TGF-beta 10 ng/mL added one hour before luciferin and read-out. Read-out: 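Live-cell BTR luciferase signal at 72 h after transfection and 1 h of TGF-beta at 10 ng/mL, fold versus scrambled siRNA, triplicate mean for each line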. Reading the numbers: fold over scrambled siRNA, A549 and fold over scrambled siRNA, 1833: higher = more reporter light, weaker TGF-beta receptor signalling. Rule for the call: 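Hit in either line counts as active; per-line hits lie above an upper limit from quartiles of averaged log fold values, in plate and screen-wide analyses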. Calls: active = hit in at least one line; inactive = hit in neither line.
The whole screen tested 714 reagents; shown is an unselected part. 49 of them (6.9%) count as active. 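Active means a hit in at least one line; per-line hit columns show which; some siRNA pools appear more than once.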 Not stated in the record: the amount of reagent.

Against CDKL2 (cyclin dependent kinase like 2), the values are fold over scrambled siRNA, A549 = 1.29; fold over scrambled siRNA, 1833 = 1.81; hit in A549 = not a hit in A549; hit in 1833 = not a hit in 1833; inactive.
EIF2AK2 (eukaryotic translation initiation factor 2 alpha kinase 2) gave fold over scrambled siRNA, A549 = 3.67; fold over scrambled siRNA, 1833 = 2.84; hit in A549 = not a hit in A549; hit in 1833 = not a hit in 1833; inactive.
For IRAK2 (interleukin 1 receptor associated kinase 2) the deposit lists fold over scrambled siRNA, A549 = 0.771; fold over scrambled siRNA, 1833 = 2.33; hit in A549 = not a hit in A549; hit in 1833 = not a hit in 1833; inactive.
CAMK1G (calcium/calmodulin dependent protein kinase IG) gave fold over scrambled siRNA, A549 = 2.69; fold over scrambled siRNA, 1833 = 2.38; hit in A549 = not a hit in A549; hit in 1833 = not a hit in 1833; inactive.
TRIB1 (tribbles pseudokinase 1) scored fold over scrambled siRNA, A549 = 1.71; fold over scrambled siRNA, 1833 = 2.9; hit in A549 = not a hit in A549; hit in 1833 = not a hit in 1833; inactive.
Silencing of ALPK2 (alpha kinase 2) came out at: fold over scrambled siRNA, A549 = 1.95; fold over scrambled siRNA, 1833 = 2.67; hit in A549 = not a hit in A549; hit in 1833 = not a hit in 1833; inactive.
CHEK2 (checkpoint kinase 2) scored fold over scrambled siRNA, A549 = 3.39; fold over scrambled siRNA, 1833 = 2.07; hit in A549 = not a hit in A549; hit in 1833 = not a hit in 1833; inactive.
With knock-down of MAPK3 (mitogen-activated protein kinase 3) the results were fold over scrambled siRNA, A549 = 2.89; fold over scrambled siRNA, 1833 = 13.7; hit in A549 = not a hit in A549; hit in 1833 = hit in 1833.

2 entries from above, set out differently:
{"gene":"TRIB1 (tribbles pseudokinase 1)","fold over scrambled siRNA, A549":1.71,"fold over scrambled siRNA, 1833":2.9,"hit in A549":"not a hit in A549","hit in 1833":"not a hit in 1833","Call":"inactive"}
{"gene":"ALPK2 (alpha kinase 2)","fold over scrambled siRNA, A549":1.95,"fold over scrambled siRNA, 1833":2.67,"hit in A549":"not a hit in A549","hit in 1833":"not a hit in 1833","Call":"inactive"}

The listing continues:
STK3 (serine/threonine kinase 3) scored fold over scrambled siRNA, A549 = 1.07; fold over scrambled siRNA, 1833 = 5.13; hit in A549 = not a hit in A549; hit in 1833 = not a hit in 1833; inactive.
After knock-down of MAP3K12 (mitogen-activated protein kinase kinase kinase 12) the results were fold over scrambled siRNA, A549 = 2.38; fold over scrambled siRNA, 1833 = 1.57; hit in A549 = not a hit in A549; hit in 1833 = not a hit in 1833; inactive.
For PKN2 (protein kinase N2), the entry reads fold over scrambled siRNA, A549 = 1.26; fold over scrambled siRNA, 1833 = 6.14; hit in A549 = not a hit in A549; hit in 1833 = not a hit in 1833; inactive.
For DGKG (diacylglycerol kinase gamma), the entry reads fold over scrambled siRNA, A549 = 1.36; fold over scrambled siRNA, 1833 = 3.1; hit in A549 = not a hit in A549; hit in 1833 = not a hit in 1833; inactive.
For MAP3K8 (mitogen-activated protein kinase kinase kinase 8), the entry reads fold over scrambled siRNA, A549 = 2.7; fold over scrambled siRNA, 1833 = 1.52; hit in A549 = not a hit in A549; hit in 1833 = not a hit in 1833; inactive.
Depletion of LATS1 (large tumor suppressor kinase 1) came out at: fold over scrambled siRNA, A549 = 1.33; fold over scrambled siRNA, 1833 = 1.33; hit in A549 = not a hit in A549; hit in 1833 = not a hit in 1833; inactive.
